# According to paper PMC3983220:
# Construct, isoform or probe ends are uncertain for at least one entry. Protein sequences can lack the tags named with them.
# Biological target: T1, D146A ΔhPus1p (Homo sapiens) (UniProt Q9Y606)
# T1 sequence (looked up): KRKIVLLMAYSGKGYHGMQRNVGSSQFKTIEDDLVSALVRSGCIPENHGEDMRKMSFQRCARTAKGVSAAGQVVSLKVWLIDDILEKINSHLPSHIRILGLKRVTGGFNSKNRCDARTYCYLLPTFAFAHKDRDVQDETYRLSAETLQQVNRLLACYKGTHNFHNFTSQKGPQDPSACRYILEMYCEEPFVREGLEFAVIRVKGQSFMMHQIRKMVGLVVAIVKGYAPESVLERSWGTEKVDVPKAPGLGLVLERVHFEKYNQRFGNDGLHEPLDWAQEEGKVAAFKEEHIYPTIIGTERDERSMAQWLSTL
# Experiment: fluorescence anisotropy
# Conditions: n=1; 5-fluorouridine at U206-equivalent position (index in oligo not given); 10 mM HEPES pH 7.0, 150 mM NaCl, 5 mM MgCl2, 5 mM TCEP, 20°C; RNA fixed at 1 µM; recombinant protein; residues 83-394; protein details: N-terminal 9xHis, TEV-cleaved; label: 5'-fluorescein; letters put together from the description
sequence,measurement,value
GCCCCAAUGGGGCCUCCACCUCCUUCAAGUAAGGCUCCCAGGUCCCCACCUGUGGG [H7 SRA FL],Kd,2200 nM
